For part of these data: The amount applied is not stated for every result.
Assays:
[1] = Controlled H2O2 oxidation of DJ-1, proteolytic 18O labeling and LC/MS/MS quantitation of oxidative modifications (Table 13); set-up: species or system Human; details: Mean ± SEM, N = 3
[2] = test system: carbonylated peptides (carbonylation sites) of plasma proteins; assay: SRM relative quantification of carbonylation sites, diabetic vs lean rat plasma (Example 5, Table 15); format: in vivo, Zucker diabetic and lean rats
[3] = 10-fold molar excess H2O2, treated/untreated
[4] = 500-fold molar excess H2O2, treated/untreated

B1: M26I: Recombinant human DJ-1 with the M26I substitution, a familial Parkinson's disease mutant (protein, UniProt Q99497 1-189, looked up, variant M26I)
chain: MASKRALVILAKGAEEMETVIPVDVIRRAGIKVTVAGLAGKDPVQCSRDVVICPDASLEDAKKEGPYDVVVLPGGNLGAQNLSESAAVKEILKEQENRKGLIAAICAGPTALLAHEIGFGSKVTTHPLAKDKMMNGGHYTYSENRVEKDGLILTSRGPGTSFEFALAIVEALNGKEVAAQVKAPLVLKD
Mass spectral ratio, C106 sulfinic acid [1, 3]: 2.8 ± 0.8 | Mass spectral ratio, M133 sulfoxide [1, 3]: 0.2 ± 0.1 | Mass spectral ratio, M134 sulfoxide [1, 3]: 0.2 ± 0.1 | Mass spectral ratio, C53 sulfonic acid ([1]; 500-fold molar excess H2O2, 18O H2O2-treated / 16O untreated peptide): 4.0 ± 0.4 | Mass spectral ratio, C106 sulfinic acid [1, 4]: 4.0 ± 0.6 | Mass spectral ratio, C106 sulfonic acid [1, 4]: 4.1 ± 0.4 | Mass spectral ratio, M133 sulfoxide [1, 4]: 2 ± 2 | Mass spectral ratio, M134 sulfoxide [1, 4]: 0.39 ± 0.02

B2: C4b-binding protein alpha chain precursor (C4bp) (protein, UniProt P04003 49-597, looked up)
C4b-binding protein alpha …: NCGPPPTLSFAAPMDITLTETRFKTGTTLKYTCLPGYVRSHSTQTLTCNSDGEWVYNTFCIYKRCRHPGELRNGQVEIKTDLSFGSQIEFSCSEGFFLIGSTTSRCEVQDRGVGWSHPLPQCEIVKCKPPPDIRNGRHSGEENFYAYGFSVTYSCDPRFSLLGHASISCTVENETIGVWRPSPPTCEKITCRKPDVSHGEMVSGFGPIYNYKDTIVFKCQKGFVLRGSSVIHCDADSKWNPSPPACEPNSCINLPDIPHASWETYPRPTKEDVYVVGTVLRYRCHPGYKPTTDEPTTVICQKNLRWTPYQGCEALCCPEPKLNNGEITQHRKSRPANHCVYFYGDEISFSCHETSRFSAICQGDGTWSPRTPSCGDICNFPPKIAHGHYKQSSSYSFFKEEIIYECDKGYILVGQAKLSCSYSHWSAPAPQCKALCRKPELVNGRLSVDKDQYVEPENVTIQCDSGYGVVGPQSITCSGNRTWYPEVPKCEWETPEGCEQVLTGKRLMQCLPNPEDVKMALEVYKLSLEIEQLELQRDSARQSTLDKEL
Ratio (diabetic plasma pooled sample/lean plasma pooled sample) replicate 1 ([2]; SRM of the peptide carrying the carbonylation site (modification and site in the same table row), pooled Zucker diabetic vs lean rat plasma, replicate 1): 0.15 | Ratio (diabetic plasma pooled sample/lean plasma pooled sample) replicate 2 ([2]; SRM of the peptide carrying the carbonylation site (modification and site in the same table row), pooled Zucker diabetic vs lean rat plasma, replicate 2): 0.11 | Average ([2]; average of replicate 1 and 2 ratios, diabetic/lean pooled plasma, SRM, per carbonylation site): 0.13 | Average (diabetic/lean rat plasma pooled sample) ([2]; carbonylated peptide: K224 Biotinylated oxidized lysine, R: 228 Biotinylated oxidized arginine, sites 224, 228 (gi|2493792), SRM ratio): 0.13
